Source: US20260092179A1, “GENETICALLY MODIFIED HOST CELLS PRODUCING VIOLACEIN, ANALOGUES, AND DERIVATIVES THEREOF” (OCTARINE BIO APS, priority 2022, published 2026)
For at least one compound, name, drawing or mass did not settle the structure.

Experiment: UV absorption capability (absorbance maxima, UV-A, UV-B, UV-C absorption) by HPLC
Assay type: physicochemical
Conditions: HPLC absorption spectra
Method: The software Agilent Openlab CDS Chemstation Rev.
Violacein is reported as being a potent UV absorbent able to effectively absorb UV radiation, however, much less is known about the other violacein derivatives. To investigate the potential of using violacein and violacein derivatives as UV inhibitors and to potentially impart UV protection to fabrics, the UV absorption spectra of each compound was analyzed by HPLC and the total absorption capability at each of the most relevant UV wavelengths quantified.
For the quantification of UV absorption capacity of the compound of interest, a chromatographic separation on the F5 column and a gradient of water/acetonitrile containing 0.05% formic acid was run according to Example 5). […] The compounds were quantified based on the signal at 230 nm, using calibration curves of authentic analytical standards.
The UV absorption capacity is represented in mAU.min/mM. UV-A, UV-B and UV-C represent the most relevant regions where UV protection is required. UV-C is the most harmful type of UV radiation and can be generated by inorganic sources. UV-B radiation predominantly comes from the suns rays and is responsible for sun burn. UV-A radiation is also derived predominantly from the suns rays, and while UV-A radiation is less harmful than UV-B or UV-C but is much more prevalent.

SMILES | UV absorbance maxima
O=C1N=C(c2c[nH]c3ccccc23)C=C1c1c[nH]c2ccccc12 [prodeoxyviolacein] | 210, 290 nm
O=C1N=C(c2c[nH]c3ccc(O)cc23)C=C1c1c[nH]c2ccccc12 [proviolacein] | 210, 300 nm
